Source: US20080199481A1
These are yes or no findings as the source states them, for the method shown. Some results given as binding are weak or reduced against the parent protein; the word gives no strength.

Tests used:
[1] = target: T1, Native human CXCL13 (human) (UniProt O43927); assay: sandwich ELISA, plates coated with Antibody 1, detection with the R&D Quantikine human CXCL13 kit
T1 sequence: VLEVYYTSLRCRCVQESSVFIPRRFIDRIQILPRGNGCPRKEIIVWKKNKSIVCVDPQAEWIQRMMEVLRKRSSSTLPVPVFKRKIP

[2] = target: T2, Recombinant CXCL13 (standards provided in the R&D Systems Quantikine Human CXCL13/BLC/BCA-1 kit) (human) (UniProt O43927); assay: as above
T2 sequence: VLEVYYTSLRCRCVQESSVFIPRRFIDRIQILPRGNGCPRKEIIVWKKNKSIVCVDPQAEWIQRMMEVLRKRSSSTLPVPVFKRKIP

[3] = target: T1, Native human CXCL13 (human); assay: sandwich ELISA, plates coated with Antibody 1 (5 µg/ml), detection with the R&D Quantikine human CXCL13 kit
[4] = target: T2, Recombinant CXCL13 (standards provided in the R&D Systems Quantikine Human CXCL13/BLC/BCA-1 kit) (human); assay: as above

Measured: binding

B1: Antibody 1 (germlined IgG1) (antibody, V domains shown)
VH: EVQLLESGGGLVQPGGSLRLSCAASGFTFGNSWMSWVRQAPGKGLEWVSAISGSGGSTYYADSVKGRFTISRDNSKNTLYLQMNSLRAEDTAVYYCTRDLPGIAVAGYWGQGTLVTVSS
VL: DTQMTQSPSTLSASVGDRVTITCRASEGIYHWLAWYQQKPGKAPKLLIYKASSLASGVPSRFSGSGSGTEFTLTISSLQPDDFATYYCQQYSNYPLTFGGGTKLEIKR
binds: all assays above
